The record followed here is paper PMC5233953.

The target in this experiment is FrpC_(1-414), the N-terminal domain of FrpC (Neisseria meningitidis) (UniProt P55127). The experiment is described as follows: SEC; Superdex 200 HR column; free proteins and an equimolar mixture of purified FrpD and FrpC_(1-414); both purified. For orientation: In gel filtration, larger molecules generally elute earlier.

These are yes or no findings as the source states them, for the method shown.

B1: FrpC_(1-414), the N-terminal domain of FrpC (domain or fragment, UniProt P55127 1-414)
chain: MNEGEVVLTPEQIQTLRGYASRGDTYGGWRYLANLGDRYADNAAAIVGKDTNLNGLNLWMKKGVENLWDDTVGKKTRLEKFDRVALQHFSQYVDLINKNNGRLPNTSEIERSYYKAVTYHGVSSSAAIDLVINRSLPDMADGYWALGLGIEAERIHNEQAVNNPNGSERDNRKQLISALDKGFDGSFKEKHFTFLQSVMMDLTKLGVEYTIDGWQKIGGWGNGIINDLYKSVVKREWTGIFEIVNNNIKQGNEAFKNEINSLVHDMKAAGKEFGDDLNTQWNNLTQAAEIIYNDIVDNTSQGIEKGVKAIKELSEKMKNAASDLADGSAEKAKQVVEDLAQAAKEAYENAKSTAEKAAQAAREFFKGLPSFKDLAEKFRDLFPNPEGWIDDGHQCFAPWVKETKKRNGKYHVYD
Regarding B1, the binding entry is recorded as “no binding”.
